Results from the supplement of paper PMC10331698.
± gives the standard deviation of the averaged measurements. Small differences around the control level are noise.

Tests used:
Experiment in all cases: level (log10 ratio to DMSO vehicle control); higher = higher biomarker level / cell amount than vehicle control
[1] = compound: C=C(C)C(=O)OCCC(F)(F)C(F)(F)C(F)(F)C(F)(F)C(F)(C(F)(F)F)C(F)(F)F [(Perfluoro-5-methylhexyl)ethyl 2-methylprop-2-enoate]; settings: in DMSO
Experimental: (§1)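 BioMAP Diversity Plus panel of 12 human primary cell co-culture systems (3C, 4H, LPS, SAg, BT, BF4T, BE3C, CASM3C, HDF3CGF, KF3CT, MyoF, Mphg). Compounds were added 1 h before stimulation and left for 24 h (MyoF 48 h; BT 72 h for soluble read-outs or 6 d for IgG). Biomarkers were read by ELISA, cytotoxicity by SRB, PBMC viability and proliferation by Alamar Blue. Each well value was divided by the mean of 8 DMSO control wells on the same plate and log10 transformed; duplicate blinded samples were tested at 4 concentrations.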

[2] = compound: C=C(C)C(=O)OCCC(F)(F)C(F)(F)C(F)(F)C(F)(F)C(F)(F)C(F)(F)C(F)(F)C(F)(F)F [8:2 Fluorotelomer methacrylate]; settings: in DMSO
Experimental: as §1

[3] = compound: COC(=O)CCC(F)(F)C(F)(F)C(F)(F)C(F)(F)F [Methyl 2H,2H,3H,3H-perfluoroheptanoate]; settings: 2200 nM; in DMSO
Experimental: as §1

[4] = compound: FC(F)(F)C(F)(F)C(F)(F)C(F)(F)C(F)(F)CCI [1-Iodo-1H,1H,2H,2H-perfluoroheptane]; settings: 2200 nM; in DMSO
Experimental: as §1

Octafluoroadipamide = compound: NC(=O)C(F)(F)C(F)(F)C(F)(F)C(F)(F)C(N)=O [Octafluoroadipamide]; settings: 2200 nM; in DMSO
Experimental: as §1

Nonafluoropentanamide = compound: NC(=O)C(F)(F)C(F)(F)C(F)(F)C(F)(F)F [Nonafluoropentanamide]; settings: 2200 nM; in DMSO
Experimental: as §1

[5] = compound: NS(=O)(=O)C(F)(F)C(F)(F)C(F)(F)C(F)(F)C(F)(F)C(F)(F)F [Perfluorohexanesulfonamide]; settings: 2200 nM; in DMSO
Experimental: as §1

Tetrafluorosuccinic acid = compound: O=C(O)C(F)(F)C(F)(F)C(=O)O [Tetrafluorosuccinic acid]; settings: 2200 nM; in DMSO
Experimental: as §1

[6] = compound: O=C(O)C(F)(F)C(F)(F)C(F)(F)C(F)(F)C(F)(F)C(F)(F)C(F)(F)C(F)(F)Cl [9-Chloro-perfluorononanoic acid]; settings: in DMSO
Experimental: as §1

[7] = compound: O=C(O)CCC(F)(F)C(F)(F)C(F)(F)C(F)(F)C(F)(F)F [2H,2H,3H,3H-Perfluorooctanoic acid]; settings: 2200 nM; in DMSO
Experimental: as §1

[8] = compound: O=S(=O)(O)C(F)(F)C(F)(F)OC(F)(F)C(F)(F)F [Perfluoro(2-ethoxyethane)sulfonic acid]; settings: 2200 nM; in DMSO
Experimental: as §1

[9] = compound: O=S(=O)(O)CCC(F)(F)C(F)(F)C(F)(F)C(F)(F)C(F)(F)C(F)(F)F [6:2 Fluorotelomer sulfonic acid]; settings: in DMSO
Experimental: as §1

Perfluoropinacol = compound: OC(C(F)(F)F)(C(F)(F)F)C(O)(C(F)(F)F)C(F)(F)F [Perfluoropinacol]; settings: in DMSO
Experimental: as §1

[10] = compound: OCCC(F)(F)C(F)(F)C(F)(F)C(F)(F)F [4:2 Fluorotelomer alcohol]; settings: 2200 nM; in DMSO
Experimental: as §1

Test System | level (log10) ([1]; 740 nM) | level (log10) ([1]; 2200 nM) | level (log10) ([1]; 6700 nM) | level (log10) ([1]; 20000 nM) | level (log10) ([2]; 740 nM) | level (log10) ([2]; 2200 nM) | level (log10) [3] | level (log10) [4] | level (log10) (Octafluoroadipamide) | level (log10) (Nonafluoropentanamide) | level (log10) [5] | level (log10) (Tetrafluorosuccinic acid) | level (log10) ([6]; 2200 nM) | level (log10) ([6]; 6700 nM) | level (log10) ([6]; 20000 nM) | level (log10) [7] | level (log10) [8] | level (log10) ([9]; 2200 nM) | level (log10) ([9]; 6700 nM) | level (log10) ([9]; 20000 nM) | level (log10) ([9]; 60000 nM) | level (log10) (Perfluoropinacol; 2200 nM) | level (log10) (Perfluoropinacol; 6700 nM) | level (log10) (Perfluoropinacol; 20000 nM) | level (log10) [10]
MyoF:alpha-SM Actin | 0.0125 ± 0.005 | -0.012 ± 0.02 | -0.018 ± 0.037 | -0.0255 ± 0.04 | 0.0075 ± 0.13 | 0.024 ± 0.073 | -0.0195 ± 0.011 | 0.005 ± 0.038 | 0.0015 ± 0.08 | 0.0265 ± 0.029 | 0.013 ± 0.048 | 0.019 ± 0.03 | -0.0205 ± 0.033 | -0.009 ± 0.028 | -0.022 ± 0.013 | 0.0355 ± 0.066 | 0.025 ± 0.017 | -0.0205 ± 0.033 | 0.016 ± 0.018 | 0.001 ± 0.021 | -0.02 ± 0.082 | -0.014 ± 0.023 | -0.004 ± 0.0028 | -0.14 ± 0.035 | -0.0015 ± 0.011
BE3C:uPA | 0.008 ± 0.02 | -0.0025 ± 0.018 | -0.001 ± 0.016 | -0.0005 ± 0.016 | 0.005 ± 0.02 | -0.016 ± 0.042 | -0.025 ± 0.023 | 0.002 ± 0.0014 | 0.003 ± 0.024 | 0.0025 ± 0.012 | -0.0145 ± 0.044 | -0.002 ± 0.0099 | 0.001 ± 0.016 | 0.0035 ± 0.011 | -0.0125 ± 0.011 | 0.004 ± 0.0057 | 0.0065 ± 0.015 | -0.0045 ± 0.012 | -0.008 ± 0.0099 | -0.005 ± 0.0028 | 0.01 ± 0.0057 | -0.001 ± 0.0028 | -0.0055 ± 0.005 | -0.042 ± 0.011 | -0.029 ± 0.035
BE3C:CXCL8/IL-8 | 0.0255 ± 0.047 | 0.012 ± 0.041 | -0.0065 ± 0.0092 | -0.008 ± 0.024 | -0.005 ± 0.04 | -0.006 ± 0.038 | 0.0435 ± 0.005 | 0.024 ± 0.065 | -0.0315 ± 0.039 | 0.0235 ± 0.025 | -0.0135 ± 0.005 | 0.0455 ± 0.074 | 0.0125 ± 0.061 | 0.0025 ± 0.025 | -0.102 ± 0.049 | 0.0105 ± 0.037 | 0.0135 ± 0.026 | 0.009 ± 0.027 | 0.021 ± 0.031 | -0.001 ± 0.021 | 0 ± 0.021 | 0.0165 ± 0.0078 | -0.049 ± 0.0014 | -0.203 ± 0.021 | -0.0115 ± 0.035
BE3C:EGFR | 0.028 ± 0.02 | -0.0045 ± 0.013 | -0.0065 ± 0.011 | 0.009 ± 0.014 | 0.0075 ± 0.016 | -0.002 ± 0.014 | -0.0385 ± 0.0035 | 0.0105 ± 0.0035 | -0.0065 ± 0.0021 | 0.009 ± 0.035 | 0.0155 ± 0.016 | 0.002 ± 0.027 | -0.0035 ± 0.011 | -0.004 ± 0.0014 | -0.101 ± 0.015 | -0.001 ± 0.0042 | 0.009 | -0.0115 ± 0.015 | -0.0075 ± 0.00071 | -0.027 ± 0.0085 | -0.0095 ± 0.0064 | -0.0085 ± 0.005 | 0.0065 ± 0.00071 | -0.027 ± 0.0085 | 0.02 ± 0.017
4H:SRB | 0.0045 ± 0.011 | 0.002 ± 0.0028 | 0.002 ± 0.013 | -0.0025 ± 0.019 | 0.006 ± 0.0028 | -0.0095 ± 0.019 | 0.0105 ± 0.012 | 0.0025 ± 0.0064 | -0.0065 ± 0.011 | -0.0025 ± 0.0092 | 0.0025 ± 0.0035 | 0.004 ± 0.0014 | -0.0005 ± 0.0035 | -0.0015 ± 0.00071 | -0.0055 ± 0.0035 | 0.005 ± 0.0014 | -0.0035 ± 0.0064 | 0.005 ± 0.0042 | -0.0015 ± 0.0021 | 0.0035 ± 0.018 | -0.004 ± 0.027 | -0.0075 ± 0.0078 | -0.0345 ± 0.015 | -0.13 ± 0.0078 | -0.0035 ± 0.012
